Test [1] addresses His-tagged talin-head domain (talin 1–405 aa), immobilised on the Ni-NTA sensor (UniProt P26039). Put plainly: BLI; Octet RED384; His-tagged talin head (50 µg/ml) immobilised on Ni-NTA sensor and covalently coupled (EDC/NHS, ethanolamine quench); GST-tagged paxillin LIM constructs in solution at 20, 80, 320, 1250 and 5000 nM; 50 mM NaPO3, 150 mM NaCl, pH 7.2; 27 °C, 1000 rpm; free GST response subtracted; response at 320 nM reported; both purified.

Protein sequences, listed by entry. Tags and fused reporters are not part of them. Lines headed by an entry give the natural chain unless they say otherwise; changes in a name come on top. Chains listed by the source or under a name are the forms on record and can include a tag or linker. Residues count along the entry.
UniProt P26039, residues 1-405: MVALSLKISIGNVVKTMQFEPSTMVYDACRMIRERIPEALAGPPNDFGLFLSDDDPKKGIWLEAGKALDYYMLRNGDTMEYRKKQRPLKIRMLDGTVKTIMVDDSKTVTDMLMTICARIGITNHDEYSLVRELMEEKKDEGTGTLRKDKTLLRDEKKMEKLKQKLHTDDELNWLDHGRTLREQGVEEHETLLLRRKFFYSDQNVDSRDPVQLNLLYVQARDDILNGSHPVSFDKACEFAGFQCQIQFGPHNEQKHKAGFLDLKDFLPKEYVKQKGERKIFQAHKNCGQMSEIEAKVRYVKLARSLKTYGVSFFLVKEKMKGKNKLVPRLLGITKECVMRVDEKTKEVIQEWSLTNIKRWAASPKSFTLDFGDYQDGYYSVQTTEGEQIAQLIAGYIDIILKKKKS
GST-fused paxillin LIM domains, LIM 1234 (P49023, residues 351-591): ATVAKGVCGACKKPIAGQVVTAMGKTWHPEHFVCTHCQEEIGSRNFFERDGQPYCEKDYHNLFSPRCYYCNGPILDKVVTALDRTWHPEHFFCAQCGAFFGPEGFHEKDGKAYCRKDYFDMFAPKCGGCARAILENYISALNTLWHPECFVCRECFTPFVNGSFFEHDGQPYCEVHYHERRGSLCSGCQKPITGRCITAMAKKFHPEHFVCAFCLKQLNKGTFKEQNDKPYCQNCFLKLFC
GST-fused paxillin LIM domains, LIM 1224 (P49023-2, form named): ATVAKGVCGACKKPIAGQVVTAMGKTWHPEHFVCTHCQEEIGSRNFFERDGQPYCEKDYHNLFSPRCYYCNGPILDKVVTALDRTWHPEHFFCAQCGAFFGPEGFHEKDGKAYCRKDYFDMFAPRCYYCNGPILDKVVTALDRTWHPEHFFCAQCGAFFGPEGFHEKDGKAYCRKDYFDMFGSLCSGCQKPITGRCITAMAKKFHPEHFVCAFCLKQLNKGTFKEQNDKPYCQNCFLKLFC
GST-fused paxillin LIM domains, LIM 1334 (P49023-2, form named): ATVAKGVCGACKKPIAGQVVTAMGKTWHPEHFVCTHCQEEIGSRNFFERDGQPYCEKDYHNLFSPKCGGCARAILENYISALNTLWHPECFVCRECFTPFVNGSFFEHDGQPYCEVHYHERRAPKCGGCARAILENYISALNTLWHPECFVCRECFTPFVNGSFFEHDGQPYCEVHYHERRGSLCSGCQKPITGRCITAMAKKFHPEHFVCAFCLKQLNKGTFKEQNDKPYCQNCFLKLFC

The target is the same in test [2]. The test is described as follows: condition: measured at 20, 80, 320, 1250, and 5000 nM; response at 320 nM reported; BLI; Octet RED384; His-tagged talin head (50 µg/ml) immobilised on Ni-NTA sensor and covalently coupled (EDC/NHS, ethanolamine quench); GST-tagged paxillin LIM constructs in solution at 20, 80, 320, 1250 and 5000 nM; 50 mM NaPO3, 150 mM NaCl, pH 7.2; 27 °C, 1000 rpm; free GST response subtracted; response at 320 nM reported; both purified.

Results are given in words; binding and its absence hold for the method and conditions named. Some binding calls cover weakened binding; strength is not graded here.

Consider “GST-fused paxillin LIM domains, LIM 1224 (from UniProt P49023-2 317-440; P49023-2 382-438; P49023-2 498-557) (domain or fragment)”, for which the binding result in test [1] is “binds”. Take “GST-fused paxillin LIM domains, LIM 1234 (from UniProt P49023-2 317-557) (domain or fragment)”: the binding entry in test [1] is on record as “binds”.

Consider “GST-fused paxillin LIM domains, LIM 1334 (from UniProt P49023-2 317-381; P49023-2 441-497; P49023-2 439-557) (domain or fragment)”, for which the binding result in test [2] is “no binding”.
